Test results reported in PubChem BioAssay AID540276 (National Center for Advancing Translational Sciences (NCATS), 2011).
Several values for one entry are separate records, joined by “and”; a condition that tells them apart may be missing. Equal entries are not always repeated. Among all 300,000 compounds or so, about 5,400 (1.8%) were called active. The shares of active, inactive and inconclusive entries below differ from those in the screen. The call rests on the fitted dose curve; tested in HEK293 cells. Potencies of inconclusive entries are doubtful fits and often do not repeat.

assay: qHTS for inhibitors of binding or entry into cells for Marburg Virus; settings: Marburg virus pseudotyped entry inhibition, cell reporter; series mostly up to 37.8 µM
Potency means the concentration at half of the fitted maximal effect.

| SMILES | Potency |
| --- | --- |
| Cc1ccc(S(=O)(=O)N2Cc3ccccc3CC2C(=O)Nn2cnnc2)cc1 (stereo unspecified) | inactive |
| O=C(OC(C(=O)Nc1ccc(Cl)cc1C(F)(F)F)c1ccccc1)C1=COCCO1 (stereo unspecified) | inconclusive: 0.112 µM [inhibitor, partial curve, poor fit] |
| COc1ccc(Cn2c(CCC(=O)Nc3cccc(OC)c3)nc3cccnc32)cc1 | inactive |
| CC(=O)NC(CC(=O)OC(C)C(=O)Nc1ccc(Cl)cn1)c1ccccc1 (stereo unspecified) | inactive |
| CC(NC(=O)c1ccnc(C(C)(C)C)c1)c1ccccc1 (stereo unspecified) | inactive |
| C=CCn1c(SCC(=O)Nc2ccc(OC)cc2)nc2c([nH]c3ccccc32)c1=O | inactive |
| CCOC(=O)c1nnn(-c2nonc2N)c1COc1c(C=O)cccc1OC | inconclusive: 35.5 µM [inhibitor, single point] |
| CC1CCCCN1CCCNC(=O)c1[nH]c2ccccc2c1Sc1ccc(Cl)cc1 (stereo unspecified) | inactive |
| Cc1ccc(-n2c(=O)c3sccc3n(CC(=O)NCc3ccco3)c2=O)cc1F | inconclusive: 25.9 µM [inhibitor, single point] |
| Cc1ccccc1OCC(=O)OCC(=O)c1ccc(OC(=O)c2ccccc2)cc1 | inactive |
| Fc1ccccc1-n1ncc2c1ncn1nc(-c3ccccc3Cl)nc21 | inconclusive: 1.12 µM [activator, partial curve, poor fit] |
| COc1ccccc1Nc1nc(N2CCOCC2)nc(N2CCOCC2)n1 | active: 3.98 µM |
| Cc1ccc(Nc2cc(C)c(O)c(C)c2)cc1 | inconclusive: 28.2 µM [inhibitor, single point] |
| Cc1nn(CC(=O)NCc2ccc(C(=O)O)cc2)c(C)c1[N+](=O)[O-] | inconclusive: 0.631 µM [activator, full curve, poor fit] |
| COc1cc(S(=O)(=O)NCc2ccncc2)c(OC)cc1C | inconclusive: 2 µM [inhibitor, full curve] |
| CC(=O)c1cccc(NC(=O)C2=CC(c3ccc4c(c3)OCO4)=NS(=O)(=O)N2C)c1 | inactive and inconclusive: 15.8 µM [inhibitor, single point] |
| COc1ccc(/C=N/Nc2nc3ccccc3o2)cc1O | inconclusive: 23.1 µM [inhibitor, single point] |
| COC(=O)c1sccc1NC(=O)/C=C/c1ccc(Cl)cc1Cl | inconclusive: 3.98 µM [activator, partial curve, poor fit] |
| Cn1c(=O)c2c(nc(NCc3ccco3)n2C/C=C/c2ccccc2)n(C)c1=O | active: 12.6 µM |
| CCCOc1ccc(C(=O)CCC(=O)OCC(=O)N2CC(=O)Nc3ccccc32)cc1 | inactive |
| N/C(=N\OS(=O)(=O)c1ccc2ccccc2c1)c1ccncc1 | inconclusive: 17.8 µM [inhibitor, partial curve, poor fit] |
| NC(=O)c1nsc(C(=O)N(c2cccc(F)c2)C(C(=O)NC2CCCC2)c2ccc(O)cc2)c1N (stereo unspecified) | inactive |
| O=C(COC(=O)C12CC3CC(CC(Cl)(C3)C1)C2)N1CCCCC1 | inconclusive: 31.6 µM [activator, single point] |
| CN(CCc1ccccn1)C(=O)Nc1cc(Cl)cc(Cl)c1 | inactive |

| SMILES | Potency |
| --- | --- |
| CC(C)(C)n1cn[nH]c1=S | inconclusive: 35.5 µM [inhibitor, single point] |
| Cc1cccc(NC(=O)C2CCCN2S(=O)(=O)c2ccc3c(c2)n(C)c(=O)c(=O)n3C)c1 (stereo unspecified) | inactive |
| Cc1cc(C)c2oc(-c3cccc(NC(=O)c4ccc(-c5cccc([N+](=O)[O-])c5)o4)c3)nc2c1 | inactive |
| O=C(NC1CCCC1)C(c1cccnc1)N(Cc1ccc(F)cc1)C(=O)c1csnn1 (stereo unspecified) | inconclusive: 2.82 µM [inhibitor, full curve] |
| Cn1nnnc1SCC(=O)NC(=O)Cc1ccccc1 | inactive |
| Cc1ccc(C)c(Cn2cnc3c(cnn3C(C)(C)C)c2=O)c1 | inconclusive: 35.5 µM [inhibitor, single point] |
| CCOC(=O)c1cnc2ccc(OCC)cc2c1NCc1ccccc1 | inconclusive: 10 µM [inhibitor, partial curve, poor fit] |
| CC1(c2ccc3c(c2)OCO3)NC(=O)N(CC(=O)NCCC2=CCCCC2)C1=O (stereo unspecified) | inactive |
| CCN=c1scc(-c2ccco2)n1/N=C/c1ccc(O)cc1 | inactive |
| COc1ccc(OC)c(NC(=O)CN2C(=O)COc3ccc(S(=O)(=O)N4CCCC4)cc32)c1 | inactive |
| Nc1cc2c3ccccc3ccc2c2ccccc12 | inconclusive: 35.5 µM [inhibitor, single point] |
| COc1ccc(S(=O)(=O)Nc2ccc(Cc3ccncc3)cc2)cc1OC | active: 1.41 µM |
| CCN(CC)CCCNc1nc2ccccc2c2nc(-c3ccncc3)nn12 | active: 7.94 µM |
| COCc1cc(C)nc(SCC(=O)Oc2ccccc2)c1C#N | inconclusive: 2.82 µM [inhibitor, single point] |
| O=C(NC(=O)c1ccccc1Cl)C(=O)Nc1ccc(Cl)cc1 | inconclusive: 7.08 µM [inhibitor, partial curve, poor fit] |
| CN(C)C(CNC(=O)c1cccc(S(=O)(=O)Nc2ccccc2Cl)c1)c1ccccc1 (stereo unspecified) | inconclusive: 15.8 µM [inhibitor, single point] |
| Cc1cc(C(=O)NNC(=O)Nc2ccc(Cl)cc2)no1 | inactive |
| COc1ccc(Cn2c(C3CC3)nc3ccc(NC(=O)c4cccnc4)cc3c2=O)cc1 | inconclusive: 10 µM [inhibitor, partial curve, poor fit] |
| CCOC(=O)N1CCC(n2c(SCC(=O)Nc3ccccc3OC)nc3ccccc3c2=O)CC1 | inconclusive: 29.1 µM [inhibitor, single point] |
| COc1ccc(-c2nc3ccccc3nc2-c2ccccc2)cc1OC | inconclusive: 31.6 µM [inhibitor, single point] |
| CCOc1ccc(Cn2c(C)nc([N+](=O)[O-])c2SCC(O)CCl)cc1[N+](=O)[O-] (stereo unspecified) | inactive |
| Cc1onc(-c2c(Cl)cccc2Cl)c1C(=O)N1CCN(c2ccccc2F)CC1 | inconclusive: 35.5 µM [inhibitor, single point] |
| Cc1ccc(NC(=O)COC(=O)c2cccc3c(=O)c(C)c(-c4ccccc4)oc23)cc1 | inconclusive: 29.1 µM [inhibitor, single point] |
| COc1ccc(-c2csc3ncnc(N4CCN(S(=O)(=O)c5ccc(Cl)s5)CC4)c23)cc1 | inconclusive: 22.4 µM [inhibitor, single point] |

Entries above that have an NH in an aromatic ring (three):

| SMILES | Potency |
| --- | --- |
| C=CCn1c(SCC(=O)Nc2ccc(OC)cc2)nc2c([nH]c3ccccc32)c1=O | inactive |
| CC1CCCCN1CCCNC(=O)c1[nH]c2ccccc2c1Sc1ccc(Cl)cc1 (stereo unspecified) | inactive |
| CC(C)(C)n1cn[nH]c1=S | inconclusive: 35.5 µM [inhibitor, single point] |

Additional compounds:

| SMILES | Potency |
| --- | --- |
| Cc1ccc2oc3c(c(=O)c2c1)C(c1ccc(O)cc1)N(c1nc(C)c(C)s1)C3=O (stereo unspecified) | inconclusive: 5.62 µM [inhibitor, single point] |
| C[C@H](NC(=O)[C@H]1N2C(=O)c3ccccc3C2SC1(C)C)C(=O)N1CCN(C)CC1 (stereo partly specified) | inactive |
| CCc1cc2c(=O)c(-c3nc4ccccc4[nH]3)coc2c(CN2CCC(C)CC2)c1O | inactive |
| Cc1cnc(C(=O)Nc2ccc(C)c(S(=O)(=O)N3CCCCC3)c2)cn1 | inconclusive: 12.6 µM [activator, single point] |
| CC1(C)Cc2c(c(N3CCOCC3)nc3sc(-c4ccc(C(=O)O)o4)c(N)c23)CO1 | inconclusive: 35.5 µM [inhibitor, single point] |
| CN(C)S(=O)(=O)c1ccc(C(=O)NCCOc2ccccc2)cc1 | inconclusive: 6.51 µM [activator, single point] |
| C/C(=N\Nc1ccc(C(F)(F)F)cn1)c1ccc(S(=O)(=O)NCc2ccco2)cc1 | inconclusive: 2.82 µM [activator, single point] |
| CCN(CC)CCn1c2c(c(SCC(=O)Nc3ccccc3Cl)nc1=O)CCC2 | inactive |
| CCN1C(=O)C(O)(c2c[nH]c3ccccc23)c2cc(Br)ccc21 (stereo unspecified) | inconclusive: 6.31 µM [inhibitor, single point] |
| O=C(NCC(c1cccnc1)N1CCOCC1)c1ccc2c(c1)OCO2 (stereo unspecified) | inconclusive: 29.1 µM [activator, partial curve, poor fit] |
| O=C(Nc1cccc(-c2cn3cccnc3n2)c1)c1ccc2c(c1)OCO2 | inactive |
| COc1ccc(S(=O)(=O)N2CCOCC2)cc1NC(=O)Cc1c(Cl)cccc1Cl | inconclusive: 35.5 µM [activator, single point] |
| CCOc1ccc(NC(=S)NC(=O)/C=C/c2ccc(OC)cc2)c([N+](=O)[O-])c1 | inconclusive: 20 µM [activator, single point] |
| CSc1ccc(S(=O)(=O)N2CCCC2)cc1 | inactive |
| CCc1ccc(-c2nc(NC(=O)c3ccc(OCC(=O)Nc4ccc(F)cc4)c(OC)c3)sc2C)cc1 | inconclusive: 0.0891 µM [inhibitor, full curve, poor fit] |
| O=[N+]([O-])c1ncn(C23CC4CC(CC(C4)C2)C3)n1 | inactive |
| CS(=O)(=O)c1cccc(C(=O)OCC(=O)c2ccc3c(c2)OCCO3)c1 | inactive |
| CC(C)c1ccc2oc(-c3cc(N)ccc3O)nc2c1 | inactive |
| CCOc1cccc(C(=O)Nc2ccc3c(c2)OCCO3)c1 | inconclusive: 5.01 µM [inhibitor, full curve, poor fit] |
| Brc1ccccc1CN1CCN(Cc2c[nH]c3ccccc23)CC1 | inconclusive: 17.8 µM [inhibitor, partial curve, poor fit] |
| Cc1ccc(NC(=O)CSc2ccccc2NC(=O)c2ccccc2)cc1Cl | inconclusive: 35.5 µM [activator, partial curve, poor fit] |
| N#CC(C#N)=C(Nc1ccccc1)c1ccccc1 | inactive |
| Cc1ccccc1NC(NC(=O)c1cccnc1)C(Cl)(Cl)Cl (stereo unspecified) | inactive |
